Assay results as given in PubChem BioAssay AID624418 (National Center for Advancing Translational Sciences (NCATS), 2012).
The whole screen tested about 410,000 compounds, of which about 530 (0.13%) were called active. These results got no clear call from the source, so the numbers are uncertain. The call rests on the fitted dose curve; in most records, active means well fitted inhibition curve with a large enough effect; inconclusive means small, poorly fitted or top-dose-only effect, or another doubt; inactive means no such curve, though single readings can be large or run the other way.

Assay: qHTS of GLP-1 Receptor Inverse Agonists: Cytotox Screen;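 further: loss of luciferase light is scored as toxicity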
Settings: HEK293 cAMP-luciferase reporter cells, luminescence, 24 h
Description: The overall goal of this project was to develop a novel assay for discovering small molecule ligands for class B1 G protein-coupled receptors (GPCRs). Very few agonists (or inverse agonists) with generally weak activity for this entire group of physiologically important receptors are known to date. To establish proof-of-principle that this critical bottleneck can be overcome with a suitable screening approach, our studies focused on the class B1 receptor for glucagon-like peptide-1 (GLP-1R), a potential therapeutic target for diabetes and neurodegenerative disease.
The assay was developed using a cell-based functional readout. Toward this goal, stably transfected HEK293 cell clones were established that co-express (i) a cAMP-responsive luciferase reporter gene, and (ii) constitutively active GLP-1R that upon ligand interaction inhibit (inverse agonists) the luciferase activity. In addition, two control cell lines were developed: (i) one that express only the cAMP-responsive reporter gene to enable initial exclusion of GLP-1R independent effects of candidate probes; and (ii) one with the reported gene cloned with another constitutively active orphan receptor GPR119 to enable exclusion of GLP-1R independent inhibitor effects of candidate inverse agonists.
To that end, this assay was optimized for 1536-well format and screened against the MLSMR. Then the same collection was run in this cytotoxicity assay where inhibition was the undesired outcome.
NIH Molecular Libraries Probe Production Network [MLPCN]
NIH Chemical Genomics Center [NCGC]
PI Name: Martin Beinborn, Tufts Medical Center
Six ul of cell suspension (200 cells/uL in DMEM + 10% Nu serum + 1% pen-strep) is dispensed in a white solid 1536-well plate. The plates are incubated for 12 hours at 37 deg C at 5% CO2 followed by addition of 23 nL compounds. After 24 hr incubation at 37 deg C and 5% CO2, 3 uL of luciferase assay detection reagent is added. A luminescence read is obtained on the PerkinElmer Viewlux after 12 min incubation at room temperature.
Potency means the concentration at half of the fitted maximal effect.

SMILES	Potency
Cc1cc(N(CCCl)CCCl)ccc1C=O	inconclusive: 4.47 µM
CCCN1CCC(Nc2cc(OC)cc(OC)c2)CC1	inconclusive: 3.98 µM
CCc1cc(C(=O)NCC2(N3CCCCC3)CCCCC2)sc1C	inconclusive: 22.4 µM
O=C(NCC1(N2CCCCC2)CCCCC1)c1ccc(Cl)s1	inconclusive: 28.2 µM
O=C(OC1CN2CCC1CC2)C1c2ccccc2Oc2ccccc21 (stereo not given)	inconclusive: 11.2 µM
